From US8436011B2, “Pyridinopyridinone derivatives, preparation thereof and therapeutic use thereof” (Sanofi, priority 2008, dated 2013)
Some results were stated once for a whole list of compounds, not compound by compound.

Amino acid sequences for entries named in this document (tags omitted). Residues count along the entry.
UniProt P16234, 579-1089, stated change not applied: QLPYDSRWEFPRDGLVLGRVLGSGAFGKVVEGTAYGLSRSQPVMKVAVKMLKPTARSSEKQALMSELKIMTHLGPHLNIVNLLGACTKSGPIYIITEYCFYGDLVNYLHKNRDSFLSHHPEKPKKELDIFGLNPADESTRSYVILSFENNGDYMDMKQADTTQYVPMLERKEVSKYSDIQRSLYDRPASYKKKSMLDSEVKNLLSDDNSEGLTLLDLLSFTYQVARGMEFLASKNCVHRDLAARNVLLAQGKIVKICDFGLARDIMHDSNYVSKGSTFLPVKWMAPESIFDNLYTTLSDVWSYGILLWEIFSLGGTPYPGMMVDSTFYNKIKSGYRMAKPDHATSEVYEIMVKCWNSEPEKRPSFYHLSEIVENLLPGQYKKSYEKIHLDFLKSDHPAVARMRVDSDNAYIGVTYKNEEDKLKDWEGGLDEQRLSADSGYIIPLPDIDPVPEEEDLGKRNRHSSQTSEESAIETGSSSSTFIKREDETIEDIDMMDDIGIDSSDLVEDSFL

biological target: fusion protein FIP1L1-PDGF-Rα (EOL-1 cell line) (Homo sapiens, UniProt P16234); experiment: Inhibition of PDGF alpha receptor tyrosine kinase activity: proliferation of EOL-1 cells (CellTiter-Glo, 72 h); type: cell-based; conditions: 72 hours incubation, read-out: IC50 (concentration that inhibits 50% of the proliferation of the EOL-1 cells)
Protocol: Measurement of Inhibition of the Tyrosine Kinase Activity of the PDGF Alpha Receptor: The inhibitory effect of the compounds according to the invention towards the tyrosine kinase activity of the PDGF alpha receptor was evaluated on the EOL-1 cell line, which line is established from a leukaemia of constitutively active chronic eosinophilic leukaemia (CEL) type. The EOL-1 line has been described as expressing the fusion protein FIP1L1-PDGF-Rα and is sensitive to kinase inhibitors in proliferation tests (Cools J. et al., Blood 2004, 103, […]). The inhibitory activity is correlated to the inhibition of cell growth. […] After incubation for 72 hours, the viable cells are quantified by measuring the cellular ATP by means of the CellTiter-Glo® kit (Promega, Cat G7571). The cells are treated according to the instructions given by the kit manufacturer, and the luminescence is measured using a Luminoskan (Ascent, Labsystem) with the following parameters: measurement: single; integration time: 1000 ms, lag time: 5 s. It is thus seen that the compounds according to the invention have inhibitory activity on the tyrosine kinase activity of PDGF-Rα. This activity is given by the concentration that inhibits 50% of the proliferation of the EOL-1 cells.

SMILES	IC50
CCN1CCOCC1CNC(=O)Cc1ccc(-c2ccc3c(=O)c(C(=O)NC)c(N)n(CC)c3n2)cc1 (stereo not drawn) [compound 22, 2-amino-1-ethyl-7-[4-(2-{[(4-ethylmorpholin-3-yl)methyl]amino}-2-oxoethyl)phenyl]-N-methyl-4-oxo-1,4-dihydro-1,8-naphthyridine-3-carboxamide]	< 0.01 nM
CCN1CC(F)(F)C[C@H]1CNC(=O)Cc1ccc(-c2ccc3c(=O)c(C(=O)NC)c(N)n(CC)c3n2)cc1 [compound 24, 2-amino-1-ethyl-7-{4-[2-({[(2S)-1-ethyl-4,4-difluoropyrrolidin-2-yl]methyl}-amino)-2-oxoethyl]phenyl}-N-methyl-4-oxo-1,4-dihydro-1,8-naphthyridine-3-carboxamide]	< 0.01 nM
CCn1c(N)c(C(=O)NC)c(=O)c2ccc(-c3ccc(CC(=O)NCC4COCCN4C4CC4)cc3)nc21 (stereo not drawn) [compound 33, 2-amino-7-[4-(2-{[(4-cyclopropylmorpholin-3-yl)methyl]amino}-2-oxoethyl)phenyl]-1-ethyl-N-methyl-4-oxo-1,4-dihydro-1,8-naphthyridine-3-carboxamide]	< 0.01 nM
